Reference: the supplement of paper PMC4371806
Over roughly 1,600 compounds, “plate-normalized OD600 growth (mean of duplicates)” has its median near 0.31; the lowest 2% begin near 0.23. Some of the results follow.

Tested on: Escherichia coli BW25113
Experiment: plate-normalized OD600 growth (mean of duplicates) (OD600 (normalized)); higher = more growth (less inhibition)
Details: 10 µM
Experimental: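 E. coli BW25113 in LB (100 µl, 96-well, no shaking) was exposed to 10 µM of each compound (here the ChemBridge subset of a ~30,000-member library) and grown at 37°C for 24 h or 15°C for 48 h, in duplicate. Growth was read as OD600 and the duplicate ODs were normalized across screening plates to correct plate-to-plate variation.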

Row | Compound | plate-normalized OD600 growth (temperature: 15°C, 48 h) | plate-normalized OD600 growth (temperature: 37°C, 24 h)
1 | Nc1nc2sc3c(c2cc1C(=O)N1CCOCC1)CCCC3 | 0.253 | 0.625
2 | CC1(C)Cc2c(sc3nc(NN)nc(NN)c23)CO1 | 0.233 | 0.619
3 | N#CC1=C(N)OC2=C(C(=O)CCC2)C1c1ccccc1Cl (centres undefined) | 0.256 | 0.617
4 | c1ccc(CN2CCN(Cc3ccco3)CC2)cc1 | 0.26 | 0.617
5 | COc1ccc(Cl)cc1S(=O)(=O)N1CCN(C)CC1 | 0.269 | 0.633
6 | COc1ccc(OC)c(C(=O)c2coc3ccc(OCC(=O)O)cc23)c1 | 0.261 | 0.645
7 | O=C(Nc1cccc([N+](=O)[O-])c1)c1cccc(S(=O)(=O)N2CCOCC2)c1 | 0.237 | 0.595
8 | COc1ccc(/C=C(\C#N)c2nn(-c3ccccc3)c(N)c2C#N)cc1 | 0.264 | 0.643
9 | Cc1[nH]nc2c1C(c1cc(Cl)cc(Cl)c1O)C(C#N)=C(N)O2 (centres undefined) | 0.258 | 0.622
10 | COc1ccc(OCC(=O)Nc2cc([N+](=O)[O-])ccc2C)cc1 | 0.239 | 0.598
11 | Cc1ccccc1N1CCN(Cc2c[nH]c3ccccc23)CC1 | 0.254 | 0.609
12 | c1ccc(-c2ccc(CN3CCN(c4ncccn4)CC3)cc2)cc1 | 0.245 | 0.608
13 | N#Cc1ccccc1NC(=O)c1ccc([N+](=O)[O-])cc1 | 0.247 | 0.601
14 | COc1ccccc1C1CC(=O)N(C)C2=C1C(=O)CC(C)(C)C2 (centres undefined) | 0.265 | 0.631
15 | O=c1c2c(nc3n1CCS3)-c1ccccc1CC21CCCCC1 | 0.277 | 0.639
16 | COc1ccc(C(=O)Nc2ccc(C(C)C)cc2)cc1OC | 0.247 | 0.611
17 | CCCN1CCC(N(CC)Cc2ccccc2)CC1 | 0.271 | 0.667
18 | O=C(O)CCC(=O)Nc1ccc(S(=O)(=O)c2ccc(NC(=O)CCC(=O)O)cc2)cc1 | 0.281 | 0.628
19 | COc1ccc(NC(=O)c2ccc(-c3ccccc3)cc2)c([N+](=O)[O-])c1 | 0.238 | 0.608
20 | CCN(Cc1ccccc1)Cc1ccco1 | 0.259 | 0.64
21 | CCCOc1ccc(CSC2=NCCN2)cc1[N+](=O)[O-] | 0.261 | 0.623
22 | C=CCn1c2ccccc2n2c(C(=O)CC)c(-c3ccc(OC)cc3)nc12 | 0.256 | 0.63
23 | CCCN(CCO)Cc1ccccc1F | 0.235 | 0.589

Row | Compound | plate-normalized OD600 growth (temperature: 15°C, 48 h) | plate-normalized OD600 growth (temperature: 37°C, 24 h)
24 | CN(C)CC[S+]([O-])c1ccccc1 (centres undefined) | 0.268 | 0.636
25 | CC(=O)Nc1cccc(NS(=O)(=O)c2cc(Cl)ccc2Cl)c1 | 0.236 | 0.638
26 | N#CC1=C(N)SC(N)=C(C#N)C1C1CCCCC1 | 0.249 | 0.65
27 | O=C(O)CCCNC(=O)c1ccccn1 | 0.25 | 0.612
28 | Cc1onc(-c2ccccc2Cl)c1C(=O)Nc1nnc(Cc2ccc(Cl)cc2)s1 | 0.241 | 0.608
29 | O=C(CCN1C(=O)c2ccccc2C1=O)Nc1ccc(Cl)cc1 | 0.257 | 0.633
30 | CC1CC(=O)C2=C(C1)OC(N)=C(C#N)C2c1ccoc1 (centres undefined) | 0.249 | 0.613
31 | C(=C\c1ccccc1)/CN1CCN(C2C3CC4CC(C3)CC2C4)CC1 (centres undefined) | 0.256 | 0.593
32 | c1cc2cn[nH]c2cc1NC1CCCCCC1 | 0.233 | 0.604
33 | Cc1nc([N+](=O)[O-])c(N2CCN(C)CC2)n1Cc1ccccc1 | 0.254 | 0.625
34 | C/C=C(\C)CN1CCN(CCOCCO)CC1 | 0.269 | 0.664
35 | O=S1(=O)C=CC(N2CCCCC2)C1 (centres undefined) | 0.243 | 0.597
36 | CCCCOC(=O)Nc1nnc(CCc2ccccc2)s1 | 0.265 | 0.623
37 | CC(C)(C)NCCOc1cccc(Cl)c1Cl | 0.252 | 0.608
38 | Cc1ccc(NC(=O)c2cccnc2)c([N+](=O)[O-])c1 | 0.262 | 0.606
39 | Cc1n[nH]c(=O)c2cc3c(C)n[nH]c(=O)c3cc12 | 0.259 | 0.622
40 | Cc1cc(C)nc(N2CC(=O)N(C)C2=N)n1 | 0.246 | 0.608
41 | Clc1ccccc1C1NCCc2c1[nH]c1ccccc21 (centres undefined) | 0.278 | 0.631
42 | CCCN1CCC(N(C)CCN(C)C)CC1 | 0.249 | 0.621
43 | Cc1ccccc1OCCCCN1CCCCC1 | 0.265 | 0.623
44 | O=C(Nc1nnc(-c2ccccc2)s1)C1CCCCC1 | 0.25 | 0.606
45 | Cc1ccccc1-c1nnc(-c2ccco2)o1 | 0.248 | 0.607
46 | Cc1cccc(N2C(=O)CC(N3CCN(c4ccccn4)CC3)C2=O)c1 (centres undefined) | 0.248 | 0.645

Two records drawn at random from the list so far:
Row | Compound | plate-normalized OD600 growth (temperature: 15°C, 48 h) | plate-normalized OD600 growth (temperature: 37°C, 24 h)
43 | Cc1ccccc1OCCCCN1CCCCC1 | 0.265 | 0.623
24 | CN(C)CC[S+]([O-])c1ccccc1 (centres undefined) | 0.268 | 0.636

(cont.)

Row | Compound | plate-normalized OD600 growth (temperature: 15°C, 48 h) | plate-normalized OD600 growth (temperature: 37°C, 24 h)
47 | CC(O)(C#CCN1CCCC1)c1ccccc1 (centres undefined) | 0.267 | 0.622
48 | CC=CC=CC(=O)Nc1c[nH]c(=O)[nH]c1=O | 0.23 | 0.648
49 | COc1cc2c(cc1OC)C(c1cc3c(cc1[N+](=O)[O-])OCO3)N(C(C)=O)CC2 (centres undefined) | 0.242 | 0.618
50 | CCN(CC)C(=O)C1CCCN(Cc2cc(Br)c(OC)cc2OC)C1 (centres undefined) | 0.259 | 0.691
51 | O=C(NC1CCCCC1)c1cccc(S(=O)(=O)N2CCCCC2)c1 | 0.251 | 0.607
52 | C(CNC1C2CC3CC(C2)CC1C3)CN1CCOCC1 (centres undefined) | 0.269 | 0.614
53 | CC(C)Oc1ccc(CNC2CCOC(C)(C)C2)cc1 (centres undefined) | 0.258 | 0.629
54 | c1cc(Nc2ncnc3sc4c(c23)CCC4)ccn1 | 0.256 | 0.623
55 | CC(=O)NC(CO)C(=O)c1ccc([N+](=O)[O-])cc1 (centres undefined) | 0.248 | 0.624
56 | CC(=O)c1cc2c(cc1NC(=O)c1ccc(Cl)cc1)OCCO2 | 0.251 | 0.638
57 | N#CC(=Cc1cccc(F)c1)c1nc(-c2ccc3c(c2)OCO3)cs1 | 0.267 | 0.618
58 | CCN(CC)C(=O)C1CCCN(Cc2ccccc2OC)C1 (centres undefined) | 0.257 | 0.654
59 | CC(=O)c1ccc(OCCOc2ccc([N+](=O)[O-])cc2)cc1 | 0.24 | 0.59
60 | CCn1c2ccccc2c2cc(CN(C)C3CCN(C)CC3)ccc21 | 0.243 | 0.616
61 | COc1cc(OC)c(CNc2ccc3cn[nH]c3c2)cc1Br | 0.244 | 0.614
62 | COc1cccc(C(=O)Nc2cc(Cl)ccc2C)c1 | 0.242 | 0.598
63 | COc1cc(CNC23CC4CC(CC(C4)C2)C3)cc2c1OCO2 | 0.263 | 0.642
64 | O=C(NCC1COc2ccccc2O1)c1cccc([N+](=O)[O-])c1 (centres undefined) | 0.25 | 0.601
65 | Cc1ccc(S(=O)(=O)CCSc2cccc(C(=O)Nc3ccccc3)c2)cc1 | 0.243 | 0.633
66 | COc1ccc2[nH]cc(CCNC(=O)c3ccc([N+](=O)[O-])cc3)c2c1 | 0.266 | 0.643
67 | N#Cc1c2n(c3c(=O)n(Cc4ccc(Cl)cc4)cnc13)CCCCC2 | 0.233 | 0.604
